# Results as given in publication PMC7893173.
# Amino acid sequences for entries named in this document (tags omitted). Residues count along the entry.
# UniProt P10215: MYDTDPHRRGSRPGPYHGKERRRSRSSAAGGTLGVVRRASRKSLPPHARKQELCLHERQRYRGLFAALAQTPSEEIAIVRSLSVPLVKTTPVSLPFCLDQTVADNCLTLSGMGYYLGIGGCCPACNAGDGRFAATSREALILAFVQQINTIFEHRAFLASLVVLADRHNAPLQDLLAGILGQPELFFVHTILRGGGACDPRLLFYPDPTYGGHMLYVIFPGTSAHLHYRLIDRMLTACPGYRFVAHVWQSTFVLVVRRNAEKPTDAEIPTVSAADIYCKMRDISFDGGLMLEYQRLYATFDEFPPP
# UniProt P10218, residues 1-220: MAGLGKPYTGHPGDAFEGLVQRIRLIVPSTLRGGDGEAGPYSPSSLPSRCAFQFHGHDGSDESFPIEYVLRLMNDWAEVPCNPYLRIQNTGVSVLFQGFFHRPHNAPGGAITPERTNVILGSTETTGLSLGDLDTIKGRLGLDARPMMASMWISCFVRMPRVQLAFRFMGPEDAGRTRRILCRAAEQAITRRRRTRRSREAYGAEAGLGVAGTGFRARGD
# These are yes or no findings as the source states them, for the method shown. Some results given as binding are weak or reduced against the parent protein; the word gives no strength.
# Biological target: HSV-1 UL31 1–306 (herpes simplex virus type 1) (UniProt P10215)
# Assay: co-purification of a co-expressed complex; UL31 1–306 and UL34 1–220 co-expressed in E. coli; purified as in ref. 14, passed over HiTrap Talon to remove cleaved His6-SUMO, then size-exclusion chromatography
substance,measurement,value
HSV-1 UL34 1–220 (from UniProt P10218 1-220) (domain or fragment),binding,binds
